{
  "source": "patent US8263095B2",
  "about": "(Caregen Co., Ltd., priority 2006, dated 2012)",
  "experiment": "general procedure: peptide synthesis; chloro trityl chloride resin",
  "conditions": "whole synthesis",
  "note": "End groups of sequences in plain letters are not given here.",
  "data": [
    {"sequence": "GFYFNKAAGYGSSSRR", "values": [
      {"measurement": "crude mass", "result": 1.18, "unit": "g"},
      {"measurement": "crude yield", "setting": "scale of the general procedure 700 mg resin", "result": 69.6, "unit": "%"}
    ]}
  ]
}
